The record followed here is PMC6058520, “Modification of translationally controlled tumor protein-derived protein transduction domain for improved intranasal delivery of insulin” (Drug Delivery, 2018).

In this test the target is Human recombinant insulin (human). In words: turbidity (absorbance at 500 nm); 50 µL 0.2 mM insulin mixed with an equal volume of 0.2 or 0.5 mM PTD, 10 mM phosphate buffer pH 6.4, 96-well plate; both purified.

These are yes or no findings as the source states them, for the method shown. Binding calls can cover weak binding; strength is not graded here.

B1: D-TCTP-PTD 13M2 (peptide)
peptide: MIIFRLLASHKK
modifications: amino acids in the D-form; acetylated at the N-terminus; C-terminus amidated
On to B1, for which the binding result is reported as “binds”.

B2: D-TCTP-PTD 13 (peptide)
peptide: MIIFRALISHKK
modifications: amino acids in the D-form; acetylated at the N-terminus; C-terminus amidated
Take B2: the binding entry is recorded as “binds”.
